# Assay results as given in PubChem BioAssay AID1487 (National Center for Advancing Translational Sciences (NCATS), 2009).
# This is one part of the list. These are further read-outs of the screen, such as a control signal, another cell line or another target. No call is given for them. The list favours compounds with an active or inconclusive main result. Potencies come from curve fits of mixed quality, noted in brackets.
# Assay: qHTS Assay for Modulators of Lamin A Splicing
# Details: HeLa LMNA splicing GFP/RFP minigene ratio, 48 h
# Method in brief: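 S3 HeLa stable clones carrying a lamin A-EGFP splicing minigene plus DsRed2 were seeded at 600 cells/well in Opti-MEM with 2% FBS, pin-dosed and incubated 48 h at 37°C. Acumen cytometry (488 nm) gave the GFP/RFP total-intensity ratio.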
# [1] = measured here: GFP splicing reporter channel
# [2] = measured here: RFP viability control channel
SMILES,AC50 [1],AC50 [2]
CC1=C/C(=N\OS(=O)(=O)c2ccccc2)C=CC1=O,"28.2 µM [falling, single point]","35.5 µM [falling, single point]"
S=C(NCCc1ccccc1)Nc1ccc(Br)cn1,"0.0126 µM [falling, full curve, poor fit]",–
CCCn1cc(SCC(=O)Nc2ccc3c(c2)OCO3)c2ccccc21,–,"11.2 µM [rising, partial curve]"
Cc1ccccc1-n1nnnc1SCCCC(=O)c1ccc(F)cc1,–,"35.5 µM [rising, single point]"
COc1cccc(C(=O)/C=C/c2ccc(OCC#N)c(OC)c2)c1,"17.8 µM [falling, partial curve, poor fit]","35.5 µM [falling, single point]"
O=C(CN(Cc1cccs1)S(=O)(=O)c1ccc(S(=O)(=O)N2CCCCC2)cc1)Nc1ccccc1,–,"0.00501 µM [falling, full curve, poor fit]"
COc1ccc(N(C(=O)Cn2nnc(-c3ccccc3F)n2)C(C(=O)NCC2CCCO2)c2ccc(Cl)cc2)cc1 (stereo not given),"7.08 µM [falling, partial curve]","8.91 µM [falling, partial curve, poor fit]"
C#CC(N)CCC(=O)O (stereo not given),–,"5.62 µM [falling, single point]"
CC(NS(=O)(=O)c1ccccc1)C(=O)Nc1nccs1 (stereo not given),–,"0.0794 µM [falling, partial curve, poor fit]"
Cc1ccc(Cn2cccc2/C=C2/C(=N)N3C=CSC3=NC2=O)cc1,–,"0.355 µM [rising, full curve, poor fit]"
Cc1ccc(NC(=O)CSc2nc3nccnc3c(=O)n2CCc2c[nH]c3ccccc23)c(C)c1,"35.5 µM [rising, partial curve, poor fit]","14.1 µM [rising, partial curve, poor fit]"
COc1ccccc1N1C(=O)C2CCC(c3ccccc3)CC2C1=O (stereo not given),"20 µM [rising, single point]",–
O=C(NCCc1ccccc1)C(=O)Nc1ccc2c(c1)OCCO2,–,"0.316 µM [falling, partial curve, poor fit]"
CCCCN(CC)S(=O)(=O)c1ccc(C(=O)Nc2nnc(-c3cccs3)o2)cc1,–,"14.1 µM [rising, partial curve, poor fit]"
COc1ccc(CCNC(=O)COc2ccc(C)nc2[N+](=O)[O-])cc1,"0.01 µM [falling, full curve, poor fit]",–
Cc1ccc(SCCC(=O)N/N=C/c2ccccc2O)cc1,–,"11.2 µM [rising, partial curve]"
CC(C)(C)c1ccc(C(=O)N2CCC(=O)N(C(COCc3ccccc3)Cc3ccccc3)CC2)cc1 (stereo not given),–,"15.8 µM [rising, single point]"

# Record cards, as listed above. Order of values: AC50 [1]	AC50 [2]
# CCCn1cc(SCC(=O)Nc2ccc3c(c2)OCO3)c2ccccc21 is listed as –	11.2 µM [rising, partial curve]
# COc1ccc(CCNC(=O)COc2ccc(C)nc2[N+](=O)[O-])cc1 is listed as 0.01 µM [falling, full curve, poor fit]	–
# CC(NS(=O)(=O)c1ccccc1)C(=O)Nc1nccs1 (stereo not given) is listed as –	0.0794 µM [falling, partial curve, poor fit]

# Carrying on.

SMILES,AC50 [1],AC50 [2]
CN(C)c1ccc(-c2nc(Nc3ccncc3)c3ccccc3n2)cc1,"22.4 µM [falling, partial curve]","35.5 µM [falling, single point]"
Cc1c(NC(=O)c2coc(=O)c(Br)c2)c(=O)n(-c2ccccc2)n1C,"35.5 µM [falling, single point]","35.5 µM [falling, single point]"
Cc1ccccc1C(CC(=O)c1cccs1)C(C#N)C#N (stereo not given),"12.6 µM [falling, partial curve]","25.1 µM [falling, single point]"
CO/N=C\CC(=O)Nc1ccc(Oc2ccccc2)cc1,"3.55 µM [falling, single point]","5.62 µM [falling, single point]"
CSc1nc(C)cc(SCC(=O)Nc2ccccc2)n1,–,"35.5 µM [rising, single point]"
CC(Oc1ccc(F)cc1)C(=O)N1CCC(c2nc3ccccc3s2)CC1 (stereo not given),"1 µM [falling, partial curve, poor fit]","0.00447 µM [falling, full curve, poor fit]"
CCn1c(-c2ccc(C)cc2)nn(CC(=O)NCCc2ccccc2)c1=S,"1.41 µM [rising, partial curve, poor fit]","6.31 µM [rising, full curve]"
C/C=C/Cn1c(SCc2ccc(C)cc2)nc2c1c(=O)[nH]c(=O)n2C,"20 µM [rising, single point]","31.6 µM [rising, single point]"
COc1ccccc1OCc1ccc(C(=O)NC(C)(C)C)o1,"31.6 µM [rising, single point]","31.6 µM [rising, single point]"
Cn1ncc2c(N3CCN(c4cccc(Cl)c4)CC3)ncnc21,"0.02 µM [falling, full curve, poor fit]",–
CCCOc1cc(N)ccc1C(=O)OCCN(CC)CC,"0.000316 µM [falling, full curve, poor fit]",–
O=S(=O)(NC1CC1)c1ccc(S(=O)(=O)N2CCc3ccccc32)cc1,"11.2 µM [rising, partial curve]","12.6 µM [rising, partial curve]"
Cc1cc(C)nc(NCC(O)CNc2ccccc2C)n1 (stereo not given),–,"35.5 µM [rising, single point]"
CCOC(=O)CC(c1ccc([N+](=O)[O-])cc1)n1c(C)ccc1C (stereo not given),"0.0224 µM [falling, full curve, poor fit]","0.0282 µM [falling, full curve, poor fit]"
COc1ccc(NC(=O)/C(Cl)=C(/Cl)S(=O)(=O)Cc2ccccc2)cn1,"4.47 µM [falling, full curve]","8.91 µM [falling, partial curve, poor fit]"
N#CC1=C(N)C2=CCCC[C@H]2[C@H](c2cccc(F)c2)C1(C#N)C#N,–,"15.8 µM [rising, single point]"
CCN(CC)S(=O)(=O)c1ccc(-c2nnc(SCC(=O)N3CCOCC3)o2)cc1,"14.1 µM [rising, partial curve, poor fit]","10 µM [rising, partial curve]"
